Test results from publication doi:10.1101/676353.
Like-named read-outs stand apart in the source and are kept apart here. No constants are given. Whether binding was seen depends on the method and setting. In cells and extracts the contact can be indirect. Some results given as binding are weak or reduced against the parent protein; the word gives no strength.

Amino acid sequences for entries named in this document (tags omitted). A change or cut given only in a name is not applied to a line headed by its entry.
UniProt Q92841, whole entry: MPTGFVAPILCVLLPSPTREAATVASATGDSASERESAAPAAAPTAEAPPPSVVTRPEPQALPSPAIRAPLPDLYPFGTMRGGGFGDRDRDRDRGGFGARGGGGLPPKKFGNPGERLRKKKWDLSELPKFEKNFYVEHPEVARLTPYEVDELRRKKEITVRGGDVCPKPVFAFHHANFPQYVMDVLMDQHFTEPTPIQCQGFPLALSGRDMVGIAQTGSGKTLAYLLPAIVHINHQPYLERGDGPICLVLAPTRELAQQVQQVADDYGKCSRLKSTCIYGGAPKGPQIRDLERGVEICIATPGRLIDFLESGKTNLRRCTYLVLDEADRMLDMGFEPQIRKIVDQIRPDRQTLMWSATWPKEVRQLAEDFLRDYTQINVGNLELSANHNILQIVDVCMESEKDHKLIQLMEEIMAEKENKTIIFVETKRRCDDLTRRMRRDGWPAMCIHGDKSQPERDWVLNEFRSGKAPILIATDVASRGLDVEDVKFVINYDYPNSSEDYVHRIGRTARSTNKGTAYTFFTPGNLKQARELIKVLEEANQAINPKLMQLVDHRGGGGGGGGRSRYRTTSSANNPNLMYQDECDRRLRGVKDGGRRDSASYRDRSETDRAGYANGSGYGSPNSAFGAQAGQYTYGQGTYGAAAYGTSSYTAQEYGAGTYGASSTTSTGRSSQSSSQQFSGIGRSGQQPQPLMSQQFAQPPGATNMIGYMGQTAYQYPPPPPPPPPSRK

Legend:
Test in all cases: co-IP
[1] = target: RELA (endogenous) (human (endogenous in 293T-LTR-GFP)) (UniProt Q04206)
[2] = target: TAX of HTLV-1 (wild type) (HTLV-1) (UniProt P03409)
[3] = target: TAX mutated form M22 (G137A, L138S) (HTLV-1) (UniProt P03409)
[4] = target: RELA (endogenous) (human (endogenous in 293T-LTR-GFP)) (UniProt Q04206); remark: listed apart in the source
[5] = target: RELA (endogenous) (human (endogenous in 293T-LTR-GFP)) (UniProt Q04206); remark: listed apart in the source
[6] = target: DDX17 (endogenous, isoforms p72 and p82) (human (endogenous in 293T-LTR-GFP)) (UniProt Q92841)

For “DDX17 (endogenous, isoforms p72 and p82) (from UniProt Q92841 1-729)”, the binding [1] was “binds”, the binding [2] was “binds” and the binding [3] was “no binding”. For the same substance, the binding [4] was “binds” and the binding [5] was “binds”.

With “RELA (endogenous) (from UniProt Q04206 1-551)” the binding [2] was “binds”, the binding [6] was “binds” and the binding [3] was “no binding”.

“TAX mutated form M22 (G137A, L138S) (from UniProt P03409 1-353)” was tested, and the binding [6] was “no binding”.

In the case of “TAX of HTLV-1 (wild type) (from UniProt P03409 1-353)”, the binding [6] is reported as “binds”.
